Results deposited as PubChem BioAssay AID602196 (INSERM, 2012).
In all, the deposit lists about 23,000 reagents; shown is a random part of them. In the full data, 455 (2%) got an active call. 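Active includes both protection and sensitisation; some change values fall well beyond the stated -50 to +50 range.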 Not given: the amount of reagent.

- Aim: 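Modifiers of cisplatin sensitivity in A549 cells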
- Cells: human A549 lung cancer cells
- Knock-down reagent: siRNA pair against human genes
- Time to read-out: 48 h transfection before cisplatin; time from cisplatin to read-out not stated
- Conditions: cisplatin at a dose killing half of control-siRNA cells; exact dose and duration not given
- Detection: 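Cisplatin cell death as a shift from the 50% death seen with control siRNA; siRNAs toxic or growth-blocking alone scored 0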
- Direction: two-siRNA summed score (-2 to +2): higher = both siRNAs protect from cisplatin killing; -2 means both sensitise; mean protection from cisplatin (shift in death) and protection from cisplatin (shift in death), siRNA C and protection from cisplatin (shift in death), siRNA D: higher = protection from cisplatin killing
- Hit rule: 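siRNAs harmful alone (LDH or WST-1) get 0; others get +1 for less and -1 for more cisplatin killing; genes are active when the two siRNAs give the same sign, summing to ±2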
- Meaning of the calls: active = both siRNAs shift cisplatin killing the same way; inactive = no consistent shift, or siRNA harmful alone

no.	gene knocked down	two-siRNA summed score (-2 to +2)	mean protection from cisplatin (shift in death) (%)	protection from cisplatin (shift in death), siRNA C (%)	protection from cisplatin (shift in death), siRNA D (%)	Call
1	PRDM9	0	-7.8	-1.5	-14.2	inactive
2	TAF8	1	11	9.4	12.6	inactive
3	CLMP	-1	-8.4	9	-25.8	inactive
4	LTC4S	0	12.9	22.6	3.2	inactive
5	EAPP	0	5.2	4.2	6.3	inactive
6	LOC440444	1	9.7	20.5	-1.1	inactive
7	LOC388900	1	11.3	5	17.5	inactive
8	SI	0	8.8	19.3	-1.7	inactive
9	LINC01144	0	-4.3	-10.9	2.3	inactive
10	MRPL3	0	-9.2	-5.6	-12.8	inactive
11	HADHB	0	-2.5	-7.4	2.3	inactive
12	CEP89	0	-10.6	-6.7	-14.5	inactive
13	TPTE2	-1	-9.1	-25.1	6.9	inactive
14	PRSS50	0	2.6	11.3	-6.1	inactive
15	RCN3	-1	-9.9	-11	-8.9	inactive
16	TMED2	0	7.7	8.2	7.2	inactive
17	PIP5K1A	1	7.7	14.8	0.6	inactive
18	MAGED1	0	10.7	15.1	6.4	inactive
19	GRB14	0	-1.7	-1.8	-1.6	inactive
20	ATP6V1E2	0	3.5	3.2	3.8	inactive
21	LOC200624	1	8.5	1.4	15.6	inactive
22	APOBEC3B	0	-6.1	2.3	-14.5	inactive
23	FFAR2	-2	-21	-24.8	-17.2	active
24	C11orf87	0	7.1	7.6	6.6	inactive
25	DACT2	0	-6.2	-25.8	13.5	inactive
26	LOC441699	0	-0.1	8.9	-9.1	inactive
27	ZNF677	0	5.4	8	2.9	inactive
28	INO80C	0	-5.7	-9.8	-1.5	inactive
29	LOC402102	0	3.3	3.3	3.3	inactive
30	PRTN3	0	-10.9	-22	0.2	inactive
31	LOC388550	1	7.4	16.2	-1.5	inactive
32	LOC387898	0	3.9	7.2	0.5	inactive
33	LOC440725	1	15	18.2	11.8	inactive
34	ABCD3	-1	-12.7	-28.3	3	inactive
35	LOC441634	1	8.8	10.2	7.4	inactive
36	LOC392173	0	5.9	5.2	6.5	inactive
37	ALOX12	-1	-0.2	-11.2	10.8	inactive
38	LOC400804	0	0.2	-3.6	4.1	inactive
39	LOC343381	0	-2.4	-13.2	8.4	inactive

2 successive reagents from above:
no.	gene knocked down	two-siRNA summed score (-2 to +2)	mean protection from cisplatin (shift in death) (%)	protection from cisplatin (shift in death), siRNA C (%)	protection from cisplatin (shift in death), siRNA D (%)	Call
37	ALOX12	-1	-0.2	-11.2	10.8	inactive
38	LOC400804	0	0.2	-3.6	4.1	inactive
